Measurements from patent publication US4474762A (Bayer Aktiengesellschaft, priority 1981, dated 1984).

Assay: general procedure: peptide synthesis; N-hydroxysuccinimide esters
Details: coupling step

**Q.** With “N-Glycyl-glycyl derivative of component B” as the substance, how does the step yield read?
**A.** 60.3%
